# Reference: article PMC8534408
# Results are given in words; binding and its absence hold for the method and conditions named. In cells and extracts the contact can be indirect. These calls come from enrichment with a bait or labelling near it, and not all partners need be listed. For part of these data: No binding means not detected with the bait.
# B1: ITFG2 (protein, UniProt Q969R8 1-447)
# chain: MRSVSYVQRVALEFSGSLFPHAICLGDVDNDTLNELVVGDTSGKVSVYKNDDSRPWLTCSCQGMLTCVGVGDVCNKGKNLLVAVSAEGWFHLFDLTPAKVLDASGHHETLIGEEQRPVFKQHIPANTKVMLISDIDGDGCRELVVGYTDRVVRAFRWEELGEGPEHLTGQLVSLKKWMLEGQVDSLSVTLGPLGLPELMVSQPGCAYAILLCTWKKDTGSPPASEGPTDGSRETPAARDVVLHQTSGRIHNKNVSTHLIGNIKQGHGTESSGSGLFALCTLDGTLKLMEEMEEADKLLWSVQVDHQLFALEKLDVTGNGHEEVVACAWDGQTYIIDHNRTVVRFQVDENIRAFCAGLYACKEGRNSPCLVYVTFNQKIYVYWEVQLERMESTNLVKLLETKPEYHSLLQELGVDPDDLPVTRALLHQTLYHPDQPPQCAPSSLQDPT
# B2: ATG101 (protein, UniProt Q9BSB4 1-218)
# chain: MNCRSEVLEVSVEGRQVEEAMLAVLHTVLLHRSTGKFHYKKEGTYSIGTVGTQDVDCDFIDFTYVRVSSEELDRALRKVVGEFKDALRNSGGDGLGQMSLEFYQKKKSRWPFSDECIPWEVWTVKVHVVALATEQERQICREKVGEKLCEKIINIVEVMNRHEYLPKMPTQSEVDNVFDTGLRDVQPYLYKISFQITDALGTSVTTTMRRLIKDTLAL
# B3: MTMR4 (protein, UniProt Q9NYA4 1-1195)
# chain: MGEEGPPSLEYIQAKDLFPPKELVKEEENLQVPFTVLQGEGVEFLGRAADALIAISNYRLHIKFKDSVINVPLRMIDSVESRDMFQLHISCKDSKVVRCHFSTFKQCQEWLSRLSRATARPAKPEDLFAFAYHAWCLGLTEEDQHTHLCQPGEHIRCRQEAELARMGFDLQNVWRVSHINSNYKLCPSYPQKLLVPVWITDKELENVASFRSWKRIPVVVYRHLRNGAAIARCSQPEISWWGWRNADDEYLVTSIAKACALDPGTRATGGSLSTGNNDTSEACDADFDSSLTACSGVESTAAPQKLLILDARSYTAAVANRAKGGGCECEEYYPNCEVVFMGMANIHAIRNSFQYLRAVCSQMPDPSNWLSALESTKWLQHLSVMLKAAVLVANTVDREGRPVLVHCSDGWDRTPQIVALAKILLDPYYRTLEGFQVLVESDWLDFGHKFGDRCGHQENVEDQNEQCPVFLQWLDSVHQLLKQFPCLFEFNEAFLVKLVQHTYSCLYGTFLANNPCEREKRNIYKRTCSVWALLRAGNKNFHNFLYTPSSDMVLHPVCHVRALHLWTAVYLPASSPCTLGEENMDLYLSPVAQSQEFSGRSLDRLPKTRSMDDLLSACDTSSPLTRTSSDPNLNNHCQEVRVGLEPWHSNPEGSETSFVDSGVGGPQQTVGEVGLPPPLPSSQKDYLSNKPFKSHKSCSPSYKLLNTAVPREMKSNTSDPEIKVLEETKGPAPDPSAQDELGRTLDGIGEPPEHCPETEAVSALSKVISNKCDGVCNFPESSQNSPTGTPQQAQPDSMLGVPSKCVLDHSLSTVCNPPSAACQTPLDPSTDFLNQDPSGSVASISHQEQLSSVPDLTHGEEDIGKRGNNRNGQLLENPRFGKMPLELVRKPISQSQISEFSFLGSNWDSFQGMVTSFPSGEATPRRLLSYGCCSKRPNSKQMRATGPCFGGQWAQREGVKSPVCSSHSNGHCTGPGGKNQMWLSSHPKQVSSTKPVPLNCPSPVPPLYLDDDGLPFPTDVIQHRLRQIEAGYKQEVEQLRRQVRELQMRLDIRHCCAPPAEPPMDYEDDFTCLKESDGSDTEDFGSDHSEDCLSEASWEPVDKKETEVTRWVPDHMASHCYNCDCEFWLAKRRHHCRNCGNVFCAGCCHLKLPIPDQQLYDPVLVCNSCYEHIQVSRARELMSQQLKKPIATASS
# B4: NPRL2 (protein, UniProt Q8WTW4 1-380)
# chain: MGSGCRIECIFFSEFHPTLGPKITYQVPEDFISRELFDTVQVYIITKPELQNKLITVTAMEKKLIGCPVCIEHKKYSRNALLFNLGFVCDAQAKTCALEPIVKKLAGYLTTLELESSFVSMEESKQKLVPIMTILLEELNASGRCTLPIDESNTIHLKVIEQRPDPPVAQEYDVPVFTKDKEDFFNSQWDLTTQQILPYIDGFRHIQKISAEADVELNLVRIAIQNLLYYGVVTLVSILQYSNVYCPTPKVQDLVDDKSLQEACLSYVTKQGHKRASLRDVFQLYCSLSPGTTVRDLIGRHPQQLQHVDERKLIQFGLMKNLIRRLQKYPVRVTREEQSHPARLYTGCHSYDEICCKTGMSYHELDERLENDPNIIICWK
# B5: APBB1 (protein, UniProt O00213 1-710)
# chain: MSVPSSLSQSAINANSHGGPALSLPLPLHAAHNQLLNAKLQATAVGPKDLRSAMGEGGGPEPGPANAKWLKEGQNQLRRAATAHRDQNRNVTLTLAEEASQEPEMAPLGPKGLIHLYSELELSAHNAANRGLRGPGLIISTQEQGPDEGEEKAAGEAEEEEEDDDDEEEEEDLSSPPGLPEPLESVEAPPRPQALTDGPREHSKSASLLFGMRNSAASDEDSSWATLSQGSPSYGSPEDTDSFWNPNAFETDSDLPAGWMRVQDTSGTYYWHIPTGTTQWEPPGRASPSQGSSPQEESQLTWTGFAHGEGFEDGEFWKDEPSDEAPMELGLKEPEEGTLTFPAQSLSPEPLPQEEEKLPPRNTNPGIKCFAVRSLGWVEMTEEELAPGRSSVAVNNCIRQLSYHKNNLHDPMSGGWGEGKDLLLQLEDETLKLVEPQSQALLHAQPIISIRVWGVGRDSGRERDFAYVARDKLTQMLKCHVFRCEAPAKNIATSLHEICSKIMAERRNARCLVNGLSLDHSKLVDVPFQVEFPAPKNELVQKFQVYYLGNVPVAKPVGVDVINGALESVLSSSSREQWTPSHVSVAPATLTILHQQTEAVLGECRVRFLSFLAVGRDVHTFAFIMAAGPASFCCHMFWCEPNAASLSEAVQAACMLRYQKCLDARSQASTSCLPAPPAESVARRVGWTVRRGVQSLWGSLKPKRLGAHTP
# B6: IRS2 (protein, UniProt Q9Y4H2 1-1338)
# chain: MASPPRHGPPGPASGDGPNLNNNNNNNNHSVRKCGYLRKQKHGHKRFFVLRGPGAGGDEATAGGGSAPQPPRLEYYESEKKWRSKAGAPKRVIALDCCLNINKRADAKHKYLIALYTKDEYFAVAAENEQEQEGWYRALTDLVSEGRAAAGDAPPAAAPAASCSASLPGALGGSAGAAGAEDSYGLVAPATAAYREVWQVNLKPKGLGQSKNLTGVYRLCLSARTIGFVKLNCEQPSVTLQLMNIRRCGHSDSFFFIEVGRSAVTGPGELWMQADDSVVAQNIHETILEAMKALKELFEFRPRSKSQSSGSSATHPISVPGARRHHHLVNLPPSQTGLVRRSRTDSLAATPPAAKCSSCRVRTASEGDGGAAAGAAAAGARPVSVAGSPLSPGPVRAPLSRSHTLSGGCGGRGSKVALLPAGGALQHSRSMSMPVAHSPPAATSPGSLSSSSGHGSGSYPPPPGPHPPLPHPLHHGPGQRPSSGSASASGSPSDPGFMSLDEYGSSPGDLRAFCSHRSNTPESIAETPPARDGGGGGEFYGYMTMDRPLSHCGRSYRRVSGDAAQDLDRGLRKRTYSLTTPARQRPVPQPSSASLDEYTLMRATFSGSAGRLCPSCPASSPKVAYHPYPEDYGDIEIGSHRSSSSNLGADDGYMPMTPGAALAGSGSGSCRSDDYMPMSPASVSAPKQILQPRAAAAAAAAVPSAGPAGPAPTSAAGRTFPASGGGYKASSPAESSPEDSGYMRMWCGSKLSMEHADGKLLPNGDYLNVSPSDAVTTGTPPDFFSAALHPGGEPLRGVPGCCYSSLPRSYKAPYTCGGDSDQYVLMSSPVGRILEEERLEPQATPGPSQAASAFGAGPTQPPHPVVPSPVRPSGGRPEGFLGQRGRAVRPTRLSLEGLPSLPSMHEYPLPPEPKSPGEYINIDFGEPGARLSPPAPPLLASAASSSSLLSASSPASSLGSGTPGTSSDSRQRSPLSDYMNLDFSSPKSPKPGAPSGHPVGSLDGLLSPEASSPYPPLPPRPSASPSSSLQPPPPPPAPGELYRLPPASAVATAQGPGAASSLSSDTGDNGDYTEMAFGVAATPPQPIAAPPKPEAARVASPTSGVKRLSLMEQVSGVEAFLQASQPPDPHRGAKVIRADPQGGRRRHSSETFSSTTTVTPVSPSFAHNPKRHNSASVENVSLRKSSEGGVGVGPGGGDEPPTSPRQLQPAPPLAPQGRPWTPGQPGGLVGCPGSGGSPMRRETSAGFQNGLNYIAIDVREEPGLPPQPQPPPPPLPQPGDKSSWGRTRSLGGLISAVGVGSTGGGCGGPGPGALPPANTYASIDFLSHHLKEATIVKE
# B7: PIBF1 (protein, UniProt Q8WXW3 1-757)
# chain: MSRKISKESKKVNISSSLESEDISLETTVPTDDISSSEEREGKVRITRQLIERKELLHNIQLLKIELSQKTMMIDNLKVDYLTKIEELEEKLNDALHQKQLLTLRLDNQLAFQQKDASKYQELMKQEMETILLRQKQLEETNLQLREKAGDVRRNLRDFELTEEQYIKLKAFPEDQLSIPEYVSVRFYELVNPLRKEICELQVKKNILAEELSTNKNQLKQLTETYEEDRKNYSEVQIRCQRLALELADTKQLIQQGDYRQENYDKVKSERDALEQEVIELRRKHEILEASHMIQTKERSELSKEVVTLEQTVTLLQKDKEYLNRQNMELSVRCAHEEDRLERLQAQLEESKKAREEMYEKYVASRDHYKTEYENKLHDELEQIRLKTNQEIDQLRNASREMYERENRNLREARDNAVAEKERAVMAEKDALEKHDQLLDRYRELQLSTESKVTEFLHQSKLKSFESERVQLLQEETARNLTQCQLECEKYQKKLEVLTKEFYSLQASSEKRITELQAQNSEHQARLDIYEKLEKELDEIIMQTAEIENEDEAERVLFSYGYGANVPTTAKRRLKQSVHLARRVLQLEKQNSLILKDLEHRKDQVTQLSQELDRANSLLNQTQQPYRYLIESVRQRDSKIDSLTESIAQLEKDVSNLNKEKSALLQTKNQMALDLEQLLNHREELAAMKQILVKMHSKHSENSLLLTKTEPKHVTENQKSKTLNVPKEHEDNIFTPKPTLFTKKEAPEWSKKQKMKT
# B8: BNIP1 (protein, UniProt Q12981 1-228)
# chain: MAAPQDVHVRICNQEIVKFDLEVKALIQDIRDCSGPLSALTELNTKVKEKFQQLRHRIQDLEQLAKEQDKESEKQLLLQEVENHKKQMLSNQASWRKANLTCKIAIDNLEKAELLQGGDLLRQRKTTKESLAQTSSTITESLMGISRMMAQQVQQSEEAMQSLVTSSRTILDANEEFKSMSGTIQLGRKLITKYNRRELTDKLLIFLALALFLATVLYIVKKRLFPFL
# Target: SH.SZT2WT (STREP-HA tagged seizure threshold 2, wild type) (human)
# Experiment: affinity purification with mass spectrometry; SH.SZT2WT or SH.GFP bait from cleared lysate of tetracycline-induced HEK293 Flp-In T-Rex cells held on Strep-Tactin Sepharose, 1 h, 4 °C, 50 mM HEPES pH 8.0, 150 mM NaCl, 5 mM EDTA, 0.5% NP-40, 50 mM NaF; eluted with 2.5 mM D-biotin; LC-MS/MS; cells starved of amino acids and growth factors for 1 h (STA) or restimulated for 20 min (STI); hits: p-value <= 0.05 and fold-change >= 5 over the GFP control
row,Binder,binding
1,B1,binds
2,B2,binds
3,B3,binds
4,B4,binds
5,B5,binds
6,B6,binds
7,B7,binds
8,B8,binds

# Target: SH.SZT2WT (STREP-HA tagged seizure threshold 2, wild type) (human)
# Experiment: condition: only cells restimulated with amino acids and growth factors for 20 min; affinity purification with mass spectrometry; as a1, SH.SZT2WT eluates of cells restimulated with amino acids and growth factors for 20 min (STI) set against starved cells (STA); p-value <= 0.05 and fold-change >= …
row,Binder,binding
1,B3,no binding
